Source: patent publication US9645138B2, “Method to evaluate the tissue targeting of a molecule of interest” (IMABIOTECH, priority 2013, dated 2017)

Test system: receptor in the brain (GABA)
Test: Receptor occupancy / adsorption by MALDI imaging of rat brain sections, Diazepam dosed and Lorazepam washing (Example 2)
From the text: FIG. 7 explains the methodology of adsorption of a molecule on tissue using the example of the receptor occupancy process. In this way, it is possible to measure the occupancy efficiency of the receptor by the drug (agonist) administered to the animal compared with an antagonist molecule. In this example, all the steps of the methodology are described: the dosed tissue analysis alone, the washing step with the antagonist solution of the control tissue and the combined dosed/washing analysis of the administrated sample. No negative marker is required for this kind of experiment.
Of course, in an almost identical manner an imaging device other that MALDI can be used, such as the following: SIMS, DESI, DIOS, ICP, MALDI microscope, SNOM, SMALDI, LA-ICP, ESI (liquid extraction on tissue), MILDI, JEDI, ELDI, etc.
Wild-type rats weighing 35-40 g were used. […] Animals (dosed and control rats) were sacrificed by CO2 asphyxiation. […] Finally, brains were stored at −80° C.
Brains (control and dosed tissues) were sectioned into 10 μm thick layers (coronal section) using a Microm HM560 (Thermo Scientific, France) cooled at −20° C.
The antagonist solution was prepared from a stock solution of Lorazepam at 1 mg/ml in methanol (100%). The final concentration of the washing solution was fixed at 100 pmol/μL in methanol/water+0.1% TFA (7:3). The concentration of the antagonist is a crucial factor for receptor occupancy that improves the binding capacity of the molecule. 20 μL of the solution was spotted on the tissue section (one dosed and one control sample) and then incubated for 1 hour at 37° C. in a box inside an INCU-Line incubator (VWR, France). A dosed brain section without washing was also put in the incubator.
After incubation, tissues were washed using 2 steps to remove unbound molecules from the tissue, firstly with a solution of methanol/water+0.1% TFA (7:3) corresponding to the antagonist washing solution. Secondly, the tissue is washed using only water solution (10 mL) and then placed into a desiccator for 15 min.
A DHB matrix was used for the analysis of all brain tissue sections with or without washing with the Lorazepam solution. This matrix was prepared at a concentration of 40 mg/ml in methanol/water+0.1% TFA (1:1, v/v).
The data was generated in positive reflectron mode.
The F2 factor allows comparison of the fine localization of the agonist and the antagonist in the white matter region and gives information about their similarity or dissimilarity.

[1] = rat brain targeted area T1, positive marker Lorazepam = 100%

## CN1C(=O)CN=C(c2ccccc2)c2cc(Cl)ccc21 [Diazepam]
Brain dosed with the agonist (15 mg/kg i.v.) without washing
  localization on the brain section (MSI): at the level of the white matter of the brain
[1]
  F1 (%): 85.1%
  F2 (%): 72.5%
Rat brain white matter, conclusion of Example 2
  affinity for the receptor site of benzodiazepine regarding the positive marker: high affinity
Rat brain, targeted area T1 (white matter, receptor binding site), Diazepam 15 mg/kg i.v., Lorazepam washing 100 pmol/μL
  Normalized mean intensity/Tissue T1: 0.692
Rat brain, untargeted area T2 (rest of the brain), Diazepam 15 mg/kg i.v., Lorazepam washing 100 pmol/μL
  Normalized mean intensity/Tissue T2: 0.117
Target area (Receptor) T1, rat brain
  % Tar (targeting coefficient): 78.8%
